Publication PMC13168492
No constants are given. Whether binding was seen depends on the method and setting. In cells and extracts the contact can be indirect. Here binding means that the protein was enriched with, or labelled near, the bait; the list need not be complete.

The chains behind the UniProt entries cited, without tags or fusion partners.
UniProt P45974: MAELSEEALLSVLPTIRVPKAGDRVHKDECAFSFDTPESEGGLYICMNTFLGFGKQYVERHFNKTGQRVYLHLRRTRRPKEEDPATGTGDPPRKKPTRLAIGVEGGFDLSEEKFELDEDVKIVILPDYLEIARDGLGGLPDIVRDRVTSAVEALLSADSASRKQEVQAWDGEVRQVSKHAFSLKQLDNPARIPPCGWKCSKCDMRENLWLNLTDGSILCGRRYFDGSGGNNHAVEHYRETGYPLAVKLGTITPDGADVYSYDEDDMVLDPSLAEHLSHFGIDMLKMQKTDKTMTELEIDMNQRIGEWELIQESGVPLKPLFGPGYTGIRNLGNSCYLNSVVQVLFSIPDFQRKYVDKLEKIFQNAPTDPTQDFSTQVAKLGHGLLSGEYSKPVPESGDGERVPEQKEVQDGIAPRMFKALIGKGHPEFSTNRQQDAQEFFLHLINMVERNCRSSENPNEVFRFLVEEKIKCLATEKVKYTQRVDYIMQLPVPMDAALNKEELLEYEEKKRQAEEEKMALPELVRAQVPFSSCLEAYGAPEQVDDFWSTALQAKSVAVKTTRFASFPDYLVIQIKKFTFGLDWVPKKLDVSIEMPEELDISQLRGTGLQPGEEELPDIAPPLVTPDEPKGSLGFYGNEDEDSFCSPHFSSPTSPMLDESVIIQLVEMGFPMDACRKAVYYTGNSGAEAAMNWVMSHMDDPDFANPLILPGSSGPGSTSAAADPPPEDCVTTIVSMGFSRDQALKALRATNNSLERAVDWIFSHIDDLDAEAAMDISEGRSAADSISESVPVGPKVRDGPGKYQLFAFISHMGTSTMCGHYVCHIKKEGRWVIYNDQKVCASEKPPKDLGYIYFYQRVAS

Target: ubiquitin-specific protease 5 (USP5), endogenous (human (endogenous in KYSE450 and KYSE30)) (UniProt P45974)
Experiment: affinity purification with mass spectrometry; USP5 immunoprecipitated from KYSE450 and KYSE30 cells, LC-MS/MS of the precipitate

- binding: binds
Substance: inosine monophosphate dehydrogenase 2 (IMPDH2), endogenous (from UniProt P12268 1-514) (enzyme)
